Measured values published in PubChem BioAssay AID743266 (National Center for Advancing Translational Sciences (NCATS), 2014).
Screen size: about 410,000 compounds; about 310 (0.076%) were called active. Inconclusive means that the source gave no clear call. Such entries were picked first, then a sample of the others. Calls come from the whole dose curve; as a rule, active = well fitted activation curve with a large enough effect; inconclusive = small, poorly fitted or top-dose-only effect, or another doubt; inactive = no such curve, though single readings can be large or run the other way. Where the call is inconclusive, the potency comes from a doubtful curve fit. Positions of bridges follow the written chain, without caps; N, C: chain ends. Non-standard residues stand in square brackets, D forms with d. Residues, ends and D or L forms follow the SMILES beside them. *: point of attachment. bishTyr = N[C@@H](CCCc1ccc(O)cc1)C(=O)O; Tigloyl = C/C=C(\C)C(=O)*; Dhb = C/C=C(\N)C(=O)O

Amino acid sequences for entries named in this document (tags omitted). A change or cut given only in a name is not applied to a line headed by its entry.
UniProt Q03431: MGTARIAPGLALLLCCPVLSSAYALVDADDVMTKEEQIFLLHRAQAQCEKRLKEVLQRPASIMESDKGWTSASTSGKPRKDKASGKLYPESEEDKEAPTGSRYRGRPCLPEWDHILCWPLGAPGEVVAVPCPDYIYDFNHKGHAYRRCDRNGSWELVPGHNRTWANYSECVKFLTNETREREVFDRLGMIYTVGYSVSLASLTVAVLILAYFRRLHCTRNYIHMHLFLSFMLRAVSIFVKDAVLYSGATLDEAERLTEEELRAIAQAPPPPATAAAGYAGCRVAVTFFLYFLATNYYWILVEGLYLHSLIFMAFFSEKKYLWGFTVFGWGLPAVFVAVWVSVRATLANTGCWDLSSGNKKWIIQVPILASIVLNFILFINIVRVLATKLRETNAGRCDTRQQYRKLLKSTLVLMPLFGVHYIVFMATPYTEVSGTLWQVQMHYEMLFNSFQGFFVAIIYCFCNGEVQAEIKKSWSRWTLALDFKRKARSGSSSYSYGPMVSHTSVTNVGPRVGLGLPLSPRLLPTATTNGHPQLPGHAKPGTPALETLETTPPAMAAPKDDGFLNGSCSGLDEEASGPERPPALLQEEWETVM

Biological target: Parathyroid hormone/parathyroid hormone-related peptide receptor (Homo sapiens) (UniProt Q03431)
Assay: qHTS for PTHR1 Agonists: Primary Screen; note: nearly all actives have a fitted effect of over 55% in size
Conditions: HEK293 GP2 PTHR1 cells, GloSensor cAMP luminescence, 1 h; activation: at 115 µM (top of the series) unless noted; series mostly up to 115 µM
Outline: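 HEK-293-derived GP2 cells expressing PTHR1 and a GloSensor cAMP reporter, 3,000/well, plated overnight, given luciferin plus IBMX (each 0.5 mM as added) for 1 h at 37 °C, then compound for 1 h at 37 °C. Luminescence was read after 15 min at room temperature.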
Potency is the fitted concentration of half-maximal effect.

SMILES | Potency | activation
c1ccc2c(c1)ccc1ncccc12 | inconclusive: 158 µM [activator, single point] | 
COc1ccc(-c2nc(CN3C(=O)CN=C(c4ccccc4)c4ccccc43)c(C)o2)cc1OC | inactive | 
COC1=CC=C2[C@H]3Cc4ccc(OC)c5c4[C@@]2(CCN3C)[C@H]1O5 | inconclusive: 15.8 µM [activator, partial curve, poor fit] | 
CN1C[C@H](CO)C[C@@H]2c3cccc4[nH]cc(c34)C[C@H]21 | inactive | 
Cc1cc(O)c(CN2CCN(c3ccccc3)CC2)cc1C | inactive | 
CC[C@@H](CO)NC(=O)[C@@H]1C=C2c3cccc4[nH]cc(c34)C[C@H]2N(C)C1 | inactive | 
NC(N)=Nc1ccc2[nH]c3c(c2c1)C[C@@]1(O)[C@H]2Cc4ccc(O)c5c4[C@@]1(CCN2CC1CC1)[C@H]3O5 | inactive | 
C[C@@H]1C(=O)O[C@H]2[C@H](O)[C@]34[C@@H]5OC(=O)[C@]3(OC3OC(=O)[C@H](O)C34[C@H](C(C)(C)C)[C@@H]5O)[C@@]12O (stereo not given in full) | inconclusive: 1.58 µM [activator, full curve] | 
CCOc1ccccc1N=C1SCCCN1C | inactive | 
N=C1c2ccccc2CN1c1ncccn1 | inconclusive: 100 µM [activator, partial curve, poor fit] | 
[O-]c1ccccc1-[n+]1c(-c2ccccc2)cc(-c2ccccc2)cc1-c1ccccc1 | inactive | 
CCOC(=O)C1(c2ccccc2)CCN(CC(=O)Nc2ccc(C)cc2)CC1 | inactive | 
C[C@H]1CN([C@@H](C)CO)C(=O)c2cc(NC(=O)Nc3cccc4ccccc34)ccc2O[C@@H]1CN(C)Cc1ccc(-c2ccccc2)cc1 | inconclusive: 100 µM [activator, single point] | 
CCC(=NCCN1CCCCC1)c1c(O)n(C)c(=O)n(C)c1=O | inconclusive: 35.5 µM [activator, single point] | 
COC(=O)C1=C(c2ccc(OCc3ccccc3)cc2)C[C@@H]2CC[C@H]1N2C(=O)NCCCc1ccccc1 | inactive | 
N#CCCn1cc(C(=O)NCc2ccccc2)c(-c2ccc3c(c2)OCCO3)n1 | inconclusive: 141 µM [activator, single point] | 
CN(C)CCNC(=O)c1cccn(Cc2cc(C(F)(F)F)cc(C(F)(F)F)c2)c1=O | inconclusive: 153 µM [activator, partial curve] | 
CC(C)C[C@H]1COc2cc(N3CCN(C)CC3)ccc2S(=O)(=O)N1 | inconclusive: 141 µM [activator, single point] | 
CNC(C(=O)c1ccccc1)C(OC)c1cccc([N+](=O)[O-])c1 (stereo not given) | inconclusive: 126 µM [activator, single point] | 
O=[N+]([O-])c1cccc(CN2CCN(Cc3ccc(Cl)cc3)CC2)c1 | inactive | 
COP(C)(=O)c1c(C)nn(-c2ccccc2)c1C (stereo not given) | inconclusive: 22.4 µM [activator, partial curve, poor fit] | 
Cn1c(O)c(C(=Nc2ccccc2)SCc2ccc(Cl)cc2)c(=O)n(C)c1=O | inactive | 
Cc1csc(-c2cccnc2)n1 | inconclusive: 35.5 µM [activator, single point] | 

A section from further up, as a working copy:
SMILES | Potency | activation
N=C1c2ccccc2CN1c1ncccn1 | inconclusive: 100 µM [activator, partial curve, poor fit] | 
[O-]c1ccccc1-[n+]1c(-c2ccccc2)cc(-c2ccccc2)cc1-c1ccccc1 | inactive | 

Additional records follow.

SMILES | Potency | activation
O=c1[nH]c(=O)n(Cc2ccc(F)cc2)c(O)c1/C=N/Nc1ccccc1 | inactive | 
N#CCCn1cc(C(=O)O)c(-c2cccc([N+](=O)[O-])c2)n1 | inconclusive: 126 µM [activator, single point] | 
O=[N+]([O-])c1cc(F)c(N2CCCC2)cc1Br | inactive | 
COP(=O)(Cc1ccc(C#N)o1)OC | inconclusive: 126 µM [activator, single point] | 
CCC(C)n1c(C)cc(C(N)=O)c1C (stereo not given) |  | inconclusive: 39.6% [activator]
COC(=O)C1=C(c2cccc(OCc3ccccc3)c2)C[C@@H]2CC[C@H]1N2C(=O)NCc1ccccc1 | inactive | 
Cc1ccc(C)c(CN2CCC(n3nnc4cc(F)ccc43)CC2)c1 | inconclusive: 39.8 µM [activator, single point] | 
O=C(Nc1ccc(Br)cc1)c1ccc(Cl)c(S(=O)(=O)N2CCCCCC2)c1 | inactive | 
Cc1ccc(S(=O)(=O)NCCC(=O)Nc2ccc(Cl)cc2C(=O)c2ccccc2)cc1 | inactive | 
COc1ccccc1CN1CCN(C(=O)COc2cccc(C)c2)CC1 | inconclusive: 4.47 µM [activator, partial curve, poor fit] | 
CCCNC(=O)c1c(N)n(Cc2ccco2)c2nc3ccccc3nc12 | inactive | 
COC(=O)[C@@H]1[C@@H](C(=O)OC)C2(c3ccccc3-c3ccccc32)N(c2ccc(Cl)cc2)N1C#N | inactive | 
C/C=C1\NC(=O)[C@H](C)NC(=O)[C@@H](NC(=O)[C@H](Cc2ccc(O)cc2)NC(=O)[C@@H](NC(=O)/C(C)=C/C)C(C)C)[C@@H](C)OC(=O)[C@H](CCCc2ccc(O)cc2)NC(=O)[C@@H](CCC(=O)O)NC1=O (Tigloyl-VYTA[Dhb][dE][bishTyr]; ester 3-C) | inconclusive: 141 µM [activator, single point] | 
COc1ccc(Cl)cc1N=Cc1c(O)n(C)c(=O)n(C)c1=O |  | inconclusive: -53.8% [activator]
Cc1ccc(NC(=O)Cn2c(=O)oc3ccccc32)cc1C | inconclusive: 158 µM [activator, single point] | 
CCN1CCN(S(=O)(=O)c2ccc(Cl)nc2)CC1 | inconclusive: 5.01 µM [activator, full curve, poor fit] | 
COC1CC2C=C(C)C=CC=CC(=O)NC(c3ccccc3)CC=CCCC(O)CC(=O)C2=C1O (stereo not given) | inactive | 
Cc1ccc(-c2ccc(=O)n(CCC(=O)N3CCC4(CC3)OCCO4)n2)cc1 |  | inconclusive: 33.3% [activator]
CC(=O)Nc1ccc(CC(=O)N2CCN(Cc3ccccc3)CC2)cc1 | inconclusive: 112 µM [activator, single point] | 
CC1Cc2ccccc2N1C(=O)COC(=O)c1ccc(Cl)nc1 (stereo not given) | inactive | 
O=C1NC(=S)N(c2ccccc2F)C(=O)/C1=C\c1cccs1 | inactive | 
COc1ccc(S(=O)(=O)NCc2ccc(C(=O)N3CCC4(CC3)OCCO4)cc2)cc1 | inconclusive: 56.2 µM [activator, single point] | 
